Values from PubChem BioAssay AID504793 (Drosophila RNAi Screening Center, 2011)
Purpose: 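Genes required for cells to halt at G2/M after double-strand DNA breaks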 (primary screen). Cell system: Drosophila S2R+ cells. Reagents: long dsRNA against Drosophila genes, about 0.25 µg dsRNA per well. Duration: 4 days of dsRNA, then 4 hours of drug before read-out. Treatment: doxorubicin 0.5 µM for 4 hours to cause double-strand breaks, in cells also given a low, harmless dose of dsRNA against nbs to sensitise the assay. Measured: 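Per-well count of mitotic cells stained for phospho-histone H3 after doxorubicin exposure, used as mitotic index; counts are raw and not normalised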. Reading the numbers: mitotic cells: higher = more cells in mitosis, weaker G2 arrest. Rule for the call: 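a call needs confirmation in secondary tests, with other dsRNAs and a check of mitotic timing without damage, not just a high primary count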. Meaning of the calls: active = confirmed in follow-up tests; inactive = not confirmed.
The screen tested about 23,000 reagents; this is an unselected part of those that have a named target and a result. Over the whole deposit, 62 (0.27%) are marked active. 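Calls come from follow-up tests whose scores are not deposited, so confirmed genes may have low counts here; counts are not normalised per plate.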 Raw values are not corrected between plates. Names joined by + are all predicted targets of the reagent.

gene | amplicon | mitotic cells, replicate 1 | outcome
Dis3 | DRSC16034 | 14 | inactive
CSN5 | DRSC16592 | 16 | inactive
CSN5 | DRSC22381 | 7 | inactive
CSN5 | DRSC27904 | 13 | inactive
Fie | DRSC08158 | 11 | inactive
CG13058 | DRSC09941 | 6 | inactive
CG13058 | DRSC27898 | 10 | inactive
Ptp36E | DRSC03021 | 7 | inactive
NC2beta | DRSC01895 | 5 | inactive
NC2beta | DRSC25346 | 4 | inactive
vnc + CG42455 | DRSC09867 | 7 | inactive
Dek | DRSC07418 | 6 | inactive
Dek | DRSC23928 | 9 | inactive
Cngl | DRSC20318 | 9 | inactive
Cngl | DRSC23577 | 11 | inactive
Mtr3 | DRSC10953 | 15 | inactive
Mtr3 | DRSC26956 | 9 | inactive
Cyp28c1 | DRSC20236 | 3 | inactive
CG2901 | DRSC18239 | 13 | inactive
Pp4-19C | DRSC20559 | 13 | inactive
Pp4-19C | DRSC21251 | 34 | inactive
Pp4-19C | DRSC23319 | 11 | inactive
Pp4-19C | DRSC26053 | 4 | inactive
CG14082 | DRSC10086 | 4 | inactive
CG14082 | DRSC25472 | 5 | inactive
Prp3 | DRSC10912 | 3 | inactive
ZnT77C | DRSC11766 | 1 | inactive
ZnT77C | DRSC11767 | 2 | inactive
Jhbp12 | DRSC14621 | 8 | inactive
CG8708 | DRSC07240 | 8 | inactive
CG8708 | DRSC27874 | 1 | inactive
CG12594 | DRSC14532 | 7 | inactive
CG12594 | DRSC27229 | 3 | inactive
Cp18 | DRSC11120 | 9 | inactive
Elp1 | DRSC14250 | 3 | inactive
CG11997 | DRSC14464 | 7 | inactive
CG11997 | DRSC26460 | 8 | inactive
CysRS | DRSC05948 | 10 | inactive
CysRS | DRSC26620 | 4 | inactive
side-III | DRSC12155 | 7 | inactive
side-III | DRSC12264 | 6 | inactive
side-III | DRSC24955 | 6 | inactive
side-III | DRSC30000 | 7 | inactive
GluRIA | DRSC11176 | 9 | inactive
Trf | DRSC03462 | 6 | inactive
CG5577 | DRSC10519 | 3 | inactive
ppk3 | DRSC04275 | 5 | inactive
ppk3 | DRSC25960 | 3 | inactive
Dsk | DRSC12347 | 5 | inactive
DhpD | DRSC12288 | 8 | inactive
SelT | DRSC02732 | 9 | inactive
SelT | DRSC26033 | 5 | inactive
Hs3st-A | DRSC06508 | 11 | inactive
Hs3st-A | DRSC06509 | 12 | inactive
Hs3st-A | DRSC30014 | 16 | inactive
CG9662 | DRSC00723 | 6 | inactive
CG9008 | DRSC01889 | 7 | inactive
CG9008 | DRSC26675 | 3 | inactive
Pep | DRSC11252 | 1 | inactive
CG34129 | DRSC15960 | 17 | inactive
Pdk | DRSC07504 | 5 | inactive
Lpt | DRSC04291 | 5 | inactive
Lpt | DRSC04515 | 14 | inactive
beat-Vc | DRSC12927 | 3 | inactive
beat-Vc | DRSC14849 | 8 | inactive
rswl | DRSC06923 | 6 | inactive
dy | DRSC20325 | 13 | inactive
dy | DRSC25539 | 5 | inactive
CG14810 | DRSC17693 | 37 | inactive
CG14810 | DRSC17961 | 16 | inactive
CG14810 | DRSC25199 | 15 | inactive
CG13731 | DRSC10059 | 2 | inactive
CG13731 | DRSC27584 | 13 | inactive
IFT20 + CG10395 | DRSC22660 | 11 | inactive
IFT20 + CG10395 | DRSC27079 | 5 | inactive
Ir60a | DRSC04212 | 5 | inactive
Mid1 | DRSC04231 | 5 | inactive
Mid1 | DRSC04308 | 7 | inactive
Mid1 | DRSC22773 | 11 | inactive
Mid1 | DRSC22803 | 13 | inactive
Mid1 | DRSC25509 | 1 | inactive
Mid1 | DRSC28634 | 5 | inactive
nxf4 | DRSC12548 | 5 | inactive
CG13137 | DRSC02234 | 5 | inactive
CG32192 | DRSC21760 | 12 | inactive
CG32192 | DRSC26771 | 8 | inactive
CG15356 | DRSC00386 | 6 | inactive
CG44098 | DRSC12214 | 12 | inactive
CG44098 | DRSC12327 | 2 | inactive
CG44098 | DRSC23643 | 3 | inactive
CG44098 | DRSC24166 | 5 | inactive
GC2 | DRSC14476 | 2 | inactive
GC2 | DRSC27370 | 9 | inactive
CG17650 | DRSC00510 | 7 | inactive
CG1172 | DRSC12182 | 5 | inactive
CG1172 | DRSC21954 | 2 | inactive
CG1172 | DRSC23672 | 4 | inactive
Trhn | DRSC08621 | 7 | inactive
CG15725 | DRSC19691 | 4 | inactive
CG15308 | DRSC17995 | 12 | inactive
SCAP | DRSC04869 | 3 | inactive
SCAP | DRSC04907 | 3 | inactive
CG12540 | DRSC19471 | 12 | inactive
Imp | DRSC18861 | 6 | inactive
Imp | DRSC20255 | 11 | inactive
CG12268 | DRSC14491 | 9 | inactive
CG12268 | DRSC28755 | 9 | inactive
CG7945 | DRSC10934 | 8 | inactive
CG14434 | DRSC17927 | 7 | inactive
galla-1 | DRSC05987 | 2 | inactive
